The supplement of paper PMC3334620
The full ranking holds about 33,000 sequences; the median of “E-score (-0.5 to 0.5)” is about -0.0014, and the highest 2% start at about 0.25. The list shows a part of the results.

target: T1, Cad1 (UniProt P24813); test: PBM E-score (8-mer binding enrichment) (E-score (-0.5 to 0.5)); higher = stronger / more preferred TF binding; details: protein concentration: 100 nM; construct: GST-full length
T1 sequence: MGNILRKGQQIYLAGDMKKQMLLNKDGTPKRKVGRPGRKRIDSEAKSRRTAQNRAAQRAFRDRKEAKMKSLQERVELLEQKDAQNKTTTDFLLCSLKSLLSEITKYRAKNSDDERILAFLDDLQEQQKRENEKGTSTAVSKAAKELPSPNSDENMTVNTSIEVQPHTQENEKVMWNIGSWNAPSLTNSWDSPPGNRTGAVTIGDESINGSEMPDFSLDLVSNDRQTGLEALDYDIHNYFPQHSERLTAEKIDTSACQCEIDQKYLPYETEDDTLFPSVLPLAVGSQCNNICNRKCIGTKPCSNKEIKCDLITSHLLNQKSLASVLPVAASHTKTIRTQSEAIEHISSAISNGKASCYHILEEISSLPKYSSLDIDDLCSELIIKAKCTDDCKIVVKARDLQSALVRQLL
How it was run: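 The E-score, a modified Wilcoxon-Mann-Whitney statistic, was computed by the Universal PBM Analysis Suite for every ungapped eight-base word pooled with its reverse complement. Scans behind it were normalised with masliner after bound GST-tagged yeast transcription factors were detected with fluorescent anti-GST. The proteins, at about 100-200 nM, had been applied to universal all-10-mer Agilent arrays made double-stranded by primer extension.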

Sequence	PBM E-score
AGTGAGAA	0.0636
TGGAATAA	0.0715
ATAGGAGG	-0.255
AATGAACA	0.053
GTATACGA	-0.0859
CATTTTCC	0.109
GGCACGCC	-0.238
CAAAAGGC	-0.0254
TTAAACAA	-0.157
CATCCGGG	-0.159
GAACTTTA	-0.0275
CGGGCCTA	-0.0675
GACGAGCC	-0.123
ATGTATAC	0.0966
CATTGATC	0.02
GCATGCTA	0.00906
ACGACCCA	-0.121
CGGCCACA	-0.0618
CGCAATTC	0.105
ACGCGTAA	0.176
AGGCTCAA	-0.0839
ATGAATGG	0.038
ACCCGGAT	-0.257
ACACGGCG	0.0831
CGGACCAG	0.00646

Sequence	PBM E-score
CAAAGCGC	0.082
GGCTATAA	-0.104
AGATAGAT	-0.198
ATCCTTAG	-0.11
ATCTCACG	0.0403
ATCCCGCC	-0.117
ACCACAGG	-0.227
AACCTCAT	0.0743
GCAACAGA	0.053
ATGGAATC	0.246
CTCACCAA	0.0934
ACGTGCGA	-0.204
ATTTGTCC	0.253
ATCAAGAG	0.0956
CAGCACCC	-0.205
GCTGGCAC	-0.069
ATTGGACC	-0.0465
GTCTCTAA	-0.0666
CCAAAGCC	-0.22
CCGTCTAG	-0.128
ACACAGTC	-0.0166
AACCGCAA	0.0521
CTGATGCC	0.0515
CTTTCTCC	-0.243
CTAATCAC	0.326

Some of the entries so far, in markdown:

| Sequence | PBM E-score |
| --- | --- |
| ATAGGAGG | -0.255 |
| TTAAACAA | -0.157 |
| CGGCCACA | -0.0618 |
| ACGCGTAA | 0.176 |
| CTCACCAA | 0.0934 |
| CTTTCTCC | -0.243 |

(continued)

Sequence	PBM E-score
ACTACATA	0.0142
GTTCCCGA	-0.087
GCCCTAAC	0.155
AAGGACTG	-0.0258
CTCATGGC	-0.0384
TAGCTATA	-0.0378
GCATGTCA	0.0455
CCCTCCGG	-0.252
GGCCGAAC	-0.055
CGTCGAAA	0.209
GCTTCAAC	-0.078
GAGGTGAA	-0.075
CCAAAGAG	-0.144
TCGTATAA	0.148
AAATAACC	-0.106
AATTTTGG	0.149
AGAGGAGG	-0.228
ATACGCCA	-0.0655
CACGCCCA	-0.0284
CGGCGGGA	-0.175
AAGGAATA	0.154
CAACCGTG	0.00095
CCCACATC	-0.119
ACGAGTAC	0.0399
CCTCAGCC	-0.202

Sequence	PBM E-score
GGTCAACC	-0.0724
AGATTACA	0.143
GCTAAACC	-0.153
GAGAGCAA	-0.0855
AGCTTTAA	0.0334
GAATCGTA	0.0597
GTTCGCGA	0.212
ACTAAGAC	0.0188
ACCGAGAC	-0.00882
AGTTATAC	0.0622
GAGCCGCC	-0.142
CTGTCCCA	-0.0681
CTCGTCAA	-0.0823
CGAATACG	0.121
CAACCTCG	0.0729
CGGCATCC	-0.027
AAGCAGGT	-0.108
ACCGGAGC	-0.168
ACCTCCCT	-0.18
CTTCCCTC	-0.233
ACGCCACA	0.0464
CTGTAAAC	-0.219
TAGAGGGA	-0.182
CGTATACC	-0.2
CCAATCTA	0.0946

At a glance, some entries already given:
Sequence	PBM E-score
AGATTACA	0.143
GCTAAACC	-0.153
GAGAGCAA	-0.0855
AGCTTTAA	0.0334

Further entries follow.

Sequence	PBM E-score
AATCCCGC	0.0701
AGTAAGTC	0.168
TACCAACA	0.0974
TCTGTGCA	0.162
TGGAGAAA	-0.151
GCCTGACA	-0.117
CTATCTAC	0.154
AACATTTG	-0.238
CTAGCTTC	0.0393
ACATCTCT	-0.156
AGTCGTCA	-0.0732
AAAACGCG	0.224
GGCAAAAA	0.163
GGAGGGTA	-0.0609
CCCTACAA	-0.14
TGGCCAAA	0.137
ACCACCTC	-0.078
GATCGTAC	-0.0816
AAGGTCCG	-0.0449
CAGTTTCC	-0.0956
GATTCGCC	0.0401
CGCCAGTA	-0.115
CCCCTCCC	-0.199
ATGGCCCA	0.0199
TAAAAGTA	0.176

Sequence	PBM E-score
AATCAAGA	0.183
ATAGGACG	0.00938
AGCCACCT	-0.159
GGCTACCA	-0.0708
ATGATTAG	0.094
TGATAAAA	0.111
GATTTCAA	0.013
GGTTCTGA	0.133
GCCGTGAC	0.102
GCATGCGA	0.225
CGTTACGA	0.111
CGTCGCAG	0.101
AGCCCAAC	-0.189
AGTCATCA	0.0969
ATCGACTC	-0.153
CAATGATG	-0.0763
CCCGGTGA	-0.209
GGATGGTA	0.16
GGACATTA	0.218
ACGTAACC	0.0866
CATCTTGA	-0.0628
ACTGACCG	-0.108
AACGCATT	0.131
CAGGGCGA	-0.00695
GGGACGAA	-0.108

Sequence	PBM E-score
ATCTTGAG	-0.149
GGAGATAC	-0.0445
CTTCCCGA	0.0789
CGTGACAA	0.039
CCCGAAAA	-0.0489
AGTGTGCC	0.0333
CGGGGGTA	-0.251
CATGTACC	-0.192
GCCTGCCA	0.033
AATGCTGT	-0.00176
AGGCTAAT	0.0951
CACGCTTA	0.226
CATAAGAC	0.00465
ATGGGTAG	-0.149
TGACCGAA	0.041
ACTGTAAA	0.0881
AAACCAAA	-0.0292
GCAGCACA	0.0775
GGCAGTAA	0.00948
GCCGACAC	0.0111
GAGGATTA	0.147
CTTCGATA	0.00144
